# Source: patent US20230276792A1, “SELECTIVE HERBICIDES BASED ON SUBSTITUTED ISOXAZOLIN CARBOXAMIDES AND CLOQUINTOCET-MEXYL” (Bayer Aktiengesellschaft, priority 2020, published 2023)
# Test system: spring wheat, TRZAS Triso
# Test: Safener seed treatment, post-emergence herbicide application, crop damage
# Format: in vivo
# Settings: cloquintocet-mexyl 0, 5 g a.i./kg seed
# Description: For safener seed treatment trials, sufficient seed amounts of the respective crops (spring wheat (TRZAS); spring barley (HORVS)) were weighed into screw cap glass bottles with a minimum volume trice of the seeds.
# As a first step, specified safeners formulated as wettable powder (WP) or wettable granules (WG) were weighed out for the required dosages (g a.i./kg seed), corresponding to the seed amounts. The safener amounts were mixed with a coloured slurry blind formulation type, pre-diluted with milk at 3.5% fat rate (25 mgs slurry formulation plus 2 ml milk per 10 grams of seed). A tube roller was used for coating. The solutions were gradually pipetted each on the rotating seeds followed by coating for min. 3 hours until all liquid had been soaked up by the seeds. Thereafter, the coated seeds were put flat on open trays for drying over night at room temperature.
# Treated seeds were then placed into pots (7 cm diameter) on the surface of sandy loam, pressed down, flat covered with additional soil and finally covered with sandy soil, also pressed down, watered, and kept under good growth conditions in a greenhouse, until the plants had reached 2-leaf-stage (BBCH 12).
# At that stage, post-emergence application of the specified herbicides was done on: • a) pot sets containing plants with safener-coated seeds as described above, • b) as a reference, pot sets of plants without seed treatment.
# The herbicides were formulated as wettable powder (WP). Equivalent to the spray area, compound amounts were weighed out and diluted related to the water application rate (300 l/ha) to an aqueous suspension plus additive (1 l/ha MERO). Dosage related equivalents were conventionally sprayed on trays with the potted plants.
# After application, the test plants were kept under good growth conditions in a greenhouse. Assessment timings were 10 and 21 days after treatment (DAT) with the herbicide, by visual scoring of the crop damage in % (comparison of untreated with treated plants, either sprayed only with herbicide or with herbicide on plants with treated seeds).
# Reduction [Difference]=herbicide damage without safener−herbicide damage with safener
# Reduction [%]=(Reduction [Difference]*100)/herbicide damage without safener
# b) Plant Species, Variety: TRZAS Triso, Safener (SAF): Cloquintocet-Mexyl
# [1] = 21 DAT, HER dose 1, 5 g a.i./ha
compound,measurement,setting,value
COCCOC(=O)C1C=CC(NC(=O)C2(C)CC(c3cc(Cl)cc(C#N)c3)=NO2)C1 (centres unmarked) [Example 1.5],Reduction [Difference],"21 DAT, HER dose 8 g a.i./ha",80
same,Reduction [Difference],"21 DAT, HER dose 32 g a.i./ha",65
CC1(C(=O)NC2CC=C(C(=O)NS(C)(=O)=O)C2)CC(c2cc(F)cc(F)c2)=NO1 (mixture of isomers) [Example 1.61],Reduction [Difference],"10 DAT, HER dose 8 g a.i./ha",50
same,Reduction [Difference],"10 DAT, HER dose 32 g a.i./ha",50
C=CC1(C(=O)NC2C=C(C(=O)OCC#N)OC2)CC(c2cc(F)cc(F)c2)=NO1 (centres unmarked) [Example 1.91],Reduction [Difference],[1],50
same,Reduction [Difference],"21 DAT, HER dose 6 g a.i./ha",60
same,Reduction [Difference],"21 DAT, HER dose 24 g a.i./ha",60
C=CC1(C(=O)NC2C=CC(C(=O)OC)C2)CC(c2cc(F)cc(F)c2)=NO1 (centres unmarked) [Example 1.26],Reduction [Difference],"21 DAT, HER dose 2 g a.i./ha",80
same,Reduction [Difference],"21 DAT, HER dose 8 g a.i./ha",63
C=CC1(C(=O)NC2COC(C(=O)OC)C2)CC(c2cc(F)cc(F)c2)=NO1 (mixture of isomers) [Example 1.68],Reduction [Difference],"21 DAT, HER dose 1 g a.i./ha",60
same,Reduction [Difference],"21 DAT, HER dose 4 g a.i./ha",55
CC(C)OC(=O)C1CC(NC(=O)C2(C(C)(F)F)CC(c3cc(F)cc(F)c3)=NO2)CO1 (mixture of isomers) [Example 1.88],Reduction [Difference],"21 DAT, HER dose 2 g a.i./ha",50
same,Reduction [Difference],"21 DAT, HER dose 8 g a.i./ha",65
COC(=O)C1COCC1NC(=O)C1(C)CC(c2cc(F)cc(F)c2)=NO1 (mixture of isomers) [Example 1.93],Reduction [Difference],"21 DAT, HER dose 2 g a.i./ha",85
same,Reduction [Difference],"21 DAT, HER dose 8 g a.i./ha",83
same,Reduction [Difference],"21 DAT, HER dose 32 g a.i./ha",85
C=CC1(C(=O)NC2CC=C(C(=O)OC)C2)CC(c2cc(F)cc(F)c2)=NO1 (mixture of isomers) [Example 1.60],Reduction [Difference],"21 DAT, HER dose 8 g a.i./ha",83
same,Reduction [Difference],"21 DAT, HER dose 32 g a.i./ha",85
CSCCOC(=O)C1C=CC(NC(=O)C2(C(F)(F)F)CC(c3cc(F)cc(F)c3)=NO2)C1 (centres unmarked) [Example 1.7],Reduction [Difference],"10 DAT, HER dose 2 g a.i./ha",50
same,Reduction [Difference],"10 DAT, HER dose 8 g a.i./ha",63
same,Reduction [Difference],"10 DAT, HER dose 32 g a.i./ha",43
C=CC1(C(=O)NC2COC(C(=O)OC)C2)CC(c2cc(C)cc(F)c2)=NO1 (mixture of isomers) [Example 1.71],Reduction [Difference],"10 DAT, HER dose 8 g a.i./ha",50
same,Reduction [Difference],"10 DAT, HER dose 32 g a.i./ha",85
CC(C)OC(=O)C1CC(NC(=O)C2(C)CC(c3cccc(F)c3)=NO2)CO1 (mixture of isomers) [Example 1.78],Reduction [Difference],"10 DAT, HER dose 1, 5 g a.i./ha",20
same,Reduction [Difference],"10 DAT, HER dose 6 g a.i./ha",70
same,Reduction [Difference],"10 DAT, HER dose 24 g a.i./ha",60
COC(=O)C1C=CC(NC(=O)C2(C)CC(c3cccc(F)c3)=NO2)C1 (centres unmarked) [Example 1.20],Reduction [Difference],"10 DAT, HER dose 8 g a.i./ha",20
same,Reduction [Difference],"10 DAT, HER dose 32 g a.i./ha",50
COC(=O)C1(C)CC(NC(=O)C2(C(C)(F)F)CC(c3cc(F)cc(F)c3)=NO2)CO1 (mixture of isomers) [Example 1.94],Reduction [Difference],[1],20
same,Reduction [Difference],"21 DAT, HER dose 6 g a.i./ha",75
same,Reduction [Difference],"21 DAT, HER dose 24 g a.i./ha",65
CCOC(=O)C1CC(NC(=O)C2(C)CC(c3cccc(F)c3)=NO2)CO1 (mixture of isomers) [Example 1.67],Reduction [Difference],"10 DAT, HER dose 4 g a.i./ha",40
same,Reduction [Difference],"10 DAT, HER dose 16 g a.i./ha",50
CC1(C(=O)NC2COC(C(=O)OCc3ccccc3)C2)CC(c2cccc(F)c2)=NO1 (mixture of isomers) [Example 1.79],Reduction [Difference],"10 DAT, HER dose 6 g a.i./ha",30
same,Reduction [Difference],"10 DAT, HER dose 24 g a.i./ha",40
C=CC1(C(=O)NC2COC(C(=O)OCCOC)C2)CC(c2cc(C)cc(F)c2)=NO1 (mixture of isomers) [Example 1.65],Reduction [Difference],"10 DAT, HER dose 8 g a.i./ha",20
COCCOC(=O)C1C=CC(NC(=O)C2(C(F)(F)F)CC(c3cc(F)cc(C#N)c3)=NO2)C1 (centres unmarked) [Example 1.2],Reduction [Difference],"10 DAT, HER dose 8 g a.i./ha",90
same,Reduction [Difference],"10 DAT, HER dose 32 g a.i./ha",80
C=CC1(C(=O)NC2C=CC(C(=O)O)C2)CC(c2cc(F)cc(F)c2)=NO1 (centres unmarked) [Example 1.58],Reduction [Difference],"21 DAT, HER dose 2 g a.i./ha",85
same,Reduction [Difference],"21 DAT, HER dose 8 g a.i./ha",83
same,Reduction [Difference],"21 DAT, HER dose 32 g a.i./ha",73
CC1(C(=O)NC2C=CC(C(=O)O)C2)CC(c2cc(F)cc(F)c2)=NO1 (centres unmarked) [Example 1.36],Reduction [Difference],"21 DAT, HER dose 1 g a.i./ha",85
same,Reduction [Difference],"21 DAT, HER dose 4 g a.i./ha",33
same,Reduction [Difference],"21 DAT, HER dose 16 g a.i./ha",25
COC(=O)C1CC(NC(=O)C2(OC)CC(c3cc(F)cc(F)c3)=NO2)CO1 (mixture of isomers) [Example 1.72],Reduction [Difference],"21 DAT, HER dose 32 g a.i./ha",50
CC1(C(=O)NC2C=CC(C(=O)OCCCl)C2)CC(c2cc(F)cc(F)c2)=NO1 (mixture of isomers) [Example 1.47],Reduction [Difference],"21 DAT, HER dose 4 g a.i./ha",20
same,Reduction [Difference],"21 DAT, HER dose 16 g a.i./ha",70
